Reference: PMC6501127
No constants are given. Whether binding was seen depends on the method and setting. Binding seen in cells or lysates may run through a third protein. Some results given as binding are weak or reduced against the parent protein; the word gives no strength.

Protein sequences, listed by entry. Tags and fused reporters are not part of them.
UniProt Q13619: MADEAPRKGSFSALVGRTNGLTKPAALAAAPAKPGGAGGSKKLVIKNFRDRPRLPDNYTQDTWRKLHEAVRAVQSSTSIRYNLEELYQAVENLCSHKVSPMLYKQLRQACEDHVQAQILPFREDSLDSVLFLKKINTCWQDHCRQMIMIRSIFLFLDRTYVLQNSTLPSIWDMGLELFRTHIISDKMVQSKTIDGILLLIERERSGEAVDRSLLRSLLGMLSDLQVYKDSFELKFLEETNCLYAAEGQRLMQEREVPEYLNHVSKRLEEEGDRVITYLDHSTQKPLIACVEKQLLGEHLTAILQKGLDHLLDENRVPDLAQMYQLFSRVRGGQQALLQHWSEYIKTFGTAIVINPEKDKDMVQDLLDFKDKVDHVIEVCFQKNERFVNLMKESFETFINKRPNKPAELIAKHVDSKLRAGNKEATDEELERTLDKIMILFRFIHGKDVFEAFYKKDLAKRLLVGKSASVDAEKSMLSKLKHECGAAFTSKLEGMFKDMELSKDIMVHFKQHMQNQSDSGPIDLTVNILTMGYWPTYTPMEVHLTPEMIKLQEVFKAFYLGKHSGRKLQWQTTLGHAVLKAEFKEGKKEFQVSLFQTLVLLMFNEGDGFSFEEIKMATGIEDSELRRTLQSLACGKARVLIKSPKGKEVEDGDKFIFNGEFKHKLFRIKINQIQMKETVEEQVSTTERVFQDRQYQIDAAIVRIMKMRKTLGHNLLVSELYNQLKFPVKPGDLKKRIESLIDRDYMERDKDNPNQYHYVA
UniProt P27008: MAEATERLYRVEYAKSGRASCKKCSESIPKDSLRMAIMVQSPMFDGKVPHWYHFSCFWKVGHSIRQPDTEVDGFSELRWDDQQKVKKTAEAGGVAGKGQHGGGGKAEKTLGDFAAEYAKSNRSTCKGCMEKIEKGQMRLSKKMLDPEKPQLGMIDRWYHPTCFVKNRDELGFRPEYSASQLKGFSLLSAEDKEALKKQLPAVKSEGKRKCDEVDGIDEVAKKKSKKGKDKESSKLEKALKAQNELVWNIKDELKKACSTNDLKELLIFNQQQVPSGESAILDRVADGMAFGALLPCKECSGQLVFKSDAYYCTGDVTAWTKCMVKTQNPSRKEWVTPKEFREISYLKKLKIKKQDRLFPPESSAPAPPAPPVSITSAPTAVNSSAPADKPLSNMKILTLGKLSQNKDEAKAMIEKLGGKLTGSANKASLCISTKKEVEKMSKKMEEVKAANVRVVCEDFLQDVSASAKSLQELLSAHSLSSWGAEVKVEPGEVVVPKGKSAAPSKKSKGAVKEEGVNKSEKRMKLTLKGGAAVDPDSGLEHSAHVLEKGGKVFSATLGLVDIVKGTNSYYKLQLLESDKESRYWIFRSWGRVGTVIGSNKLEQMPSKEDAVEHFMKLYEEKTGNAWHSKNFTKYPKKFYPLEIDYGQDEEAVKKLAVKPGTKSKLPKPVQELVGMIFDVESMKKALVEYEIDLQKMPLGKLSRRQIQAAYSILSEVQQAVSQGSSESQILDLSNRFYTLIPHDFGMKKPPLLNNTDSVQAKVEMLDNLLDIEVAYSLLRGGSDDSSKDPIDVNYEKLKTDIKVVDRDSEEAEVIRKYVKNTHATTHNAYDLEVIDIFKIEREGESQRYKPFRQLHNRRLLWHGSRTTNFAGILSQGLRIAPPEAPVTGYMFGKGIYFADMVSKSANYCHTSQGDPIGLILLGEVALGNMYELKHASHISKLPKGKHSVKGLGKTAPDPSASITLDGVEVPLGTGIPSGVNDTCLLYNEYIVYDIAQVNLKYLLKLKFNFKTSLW

Biological target: Flag-Cul4a (UniProt Q13619)
Test: co-IP; lysate of H9c2 cells transfected with Flag-Cul4a (flag lysis buffer); anti-Flag antibody with Protein A/G magnetic beads overnight, anti-PARP1 western blot; cells untreated or treated with 200 μM H2O2 for 2 h

- binding: binds
Substance: poly (ADP-ribose) polymerase-1 (from UniProt P27008 1-1014)
